Assay results reported in patent publication US8293219B2, “Use of long carbon chain quaternary ammonium salt phosphoric acid ester as conditioner for hair” (Nanjing Huashi Chemical Co., Ltd, priority 2007, dated 2012).

Test: Carding force test (Instron 3343 biomechanics tester)
Conditions: hair immersed in 10% sample formula at room temperature for 20 minutes, rinsed, air dried; compared with contrast sample; sample content as printed (1% for single esters)
Protocol: Some hair of the oriental having a length of about 15 cm was taken, cleaned thoroughly with 1% SLS, rinsed with water for 2 minutes; the remaining water on the hair was then removed and the hair was immersed in a 10% sample formula at room temperature for 20 minutes. Then, the hair was taken out and rinsed with water for 2 minutes; after being dried in the air, the hair was tested by using Instron 3343 biomechanics tester and compared with the contrast sample. For the test results, see Table 1.

Substance	Reduction of carding force
mono-Isostearamidopropyl PG-dimonium chloride phosphate [ISFA]	11.0
mono-Palmitamidopropyl PG-dimonium chloride phosphate [PFA]	5.8.
mono-Stearamidopropyl PG-dimonium chloride phosphate [SFA]	7.0
mono-Behenamidopropyl PG-dimonium chloride phosphate [BFA]	14.0
